# Earlier results in patent US20030013640A1, “Integrin linked kinase modulation of leukocyte trafficking” (priority 2001, published 2003).
# At least one compound was matched to its structure with a doubt left.
# Test system: leukocyte-endothelium interaction
# Conditions: s.c. 1 h prior to the cytokine; cited from earlier work
compound,measurement,value
C[C@@H]1C[C@H]2[C@@H]3CCC4=CC(=O)C=C[C@]4(C)[C@@]3(F)[C@@H](O)C[C@]2(C)[C@@]1(O)C(=O)CO [dexamethasone],ED50 for reduction of IL-1β-induced cell adhesion,0.48 mg/kg
same,ED50 for reduction of IL-1β-induced emigration,0.04 mg/kg
